Structures can show the parent of a compound that is named as a salt. This is one part of the list. This data set is noisy: repeats of one test often differ as much as different tests do.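 Cells: ReNCell VM human fetal ventral-midbrain neural progenitors, differentiated mitogen-free. Blinded raters compared doublecortin-stained (early neurons) or tyrosine hydroxylase-stained (dopaminergic neurons) images with untreated wells, where 0 means no change. After repeats and both raters were averaged, compounds scoring 2 or above became hits for retesting.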
What follows are compounds tested on ReNCell VM (assay: neuronal differentiation score (DCX+ cell fraction vs untreated, manual image score) (score (-3 to 3)); higher = more neuronal differentiation). Settings: library: LOPAC; 2 uM; 2 weeks.

Neuronal differentiation score, inactive:
CN(C)CCOC(=O)COc1ccc(Cl)cc1 [Centrophenoxine hydrochloride] -1
O=C(O)CCC(=O)N1CCC[C@H]1C(=O)O [N-Succinyl-L-proline] 0
C[C@@H]1O[C@@H]1P(=O)(O)O [Phosphomycin disodium] 0
O=c1c(O)c(-c2ccc(O)cc2O)oc2cc(O)cc(O)c12 [Morin] 0
Cc1nc(N=Nc2ccc(C(=O)O)cc2)c(COP(=O)(O)O)c(C=O)c1O 1

Same assay, conditions: library: Prestwick; 2 uM; 2 weeks

Neuronal differentiation score, inactive:
O=C(O)[C@H]1/C(=C/CO)O[C@@H]2CC(=O)N21 [Clavulanate potassium salt] 0
CCC(C)(CN(C)C)OC(=O)c1ccccc1 (stereo not drawn) [Amyleine hydrochloride] 0
CC(=O)NS(=O)(=O)c1ccc(N)cc1 [Sulfacetamide sodic hydrate] 0
